B1: GST-PIKE-A WT [not stated] / Flag-CDK4 [not stated] (parent)
chain 1: MHAQRQFVVAAVRAEVRRHEVAKQALNRLRKLAERVDDPELQDSIQASLDSIREAVINSQEWTLSRSIPELRLGVLGDARSGKSSLIHRFLTGSYQVLEKTESEQYKKEMLVDGQTHLVLIREEAGAPDAKFSGWADAVIFVFSLEDENSFQAVSRLHGQLSSLRGEGRGGLALALVGTQDRISASSPRVVGDARARALCADMKRCSYYETCATYGLNVDRVFQEVAQKVVTLRKQQQLLAACKSLPSSPSHSAASTPVAGQASNGGHTSDYSSSLPSSPNVGHRELRAEAAAVAGLSTPGSLHRAAKRRTSLFANRRGSDSEKRSLDSRGETTGSGRAIPIKQSFLLKRSGNSLNKEWKKKYVTLSSNGFLLYHPSINDYIHSTHGKEMDLLRTTVKVPGKRPPRAISAFGPSASINGLVKDMSTVQMGEGLEATTPMPSPSPSPSSLQPPPDQTSKHLLKPDRNLARALSTDCTPSGDLSPLSREPPPSPMVKKQRRKKLTTPSKTEGSAGQAEEENFEFLIVSSTGQTWHFEAASFEERDAWVQAIESQILASLQCCESSKVKLRTDSQSEAVAIQAIRNAKGNSICVDCGAPNPTWASLNLGALICIECSGIHRNLGTHLSRVRSLDLDDWPRELTLVLTAIGNDTANRVWESDTRGRAKPSRDSSREERESWIRAKYEQLLFLAPLSTSEEPLGRQLWAAVQAQDVATVLLLLAHARHGPLDTSVEDPQLRSPLHLAAELAHVVITQLLLWYGADVAARDAQGRTALFYARQAGSQLCADILLQHGCPGEGGSAATTPSAATTPSITATPSPRRRSSAASVGRADAPVALV
chain 2: MATSRYEPVAEIGVGAYGTVYKARDPHSGHFVALKSVRVPNGGGGGGGLPISTVREVALLRRLEAFEHPNVVRLMDVCATSRTDREIKVTLVFEHVDQDLRTYLDKAPPPGLPAETIKDLMRQFLRGLDFLHANCIVHRDLKPENILVTSGGTVKLADFGLARIYSYQMALTPVVVTLWYRAPEVLLQSTYATPVDMWSVGCIFAEMFRRKPLFCGNSEADQLGKIFDLIGLPPEDDWPRDVSLPRGAFPPRGPRPVQSVVPEMEESGAQLLLEMLTFNPHKRISAFRALQHSYLHKDEGNPE
B2: myc-PIKE-A WT [not stated] / GFP-14-3-3β [not stated] (parent)
chain 1: B1 chain 1
chain 2: MTMDKSELVQKAKLAEQAERYDDMAAAMKAVTEQGHELSNEERNLLSVAYKNVVGARRSSWRVISSIEQKTERNEKKQQMGKEYREKIEAELQDICNDVLELLDKYLIPNATQPESKVFYLKMKGDYFRYLSEVASGDNKQTTVSNSQQAYQEAFEISKKEMQPTHPIRLGLALNFSVFYYEILNSPEKACSLAKTAFDEAIAELDTLNEESYKDSTLIMQLLRDNLTLWTSENQGDEGDAGEGEN

Variants of: B1
Test: GST pull-down (WB: anti-Flag), band quantification
Settings: with Flag-CDK4; HEK293 cells, co-transfected with myc-AMPKα T172A; parent: 0.55; read off a plot

Work on chain 1 S351A S377A yielded a response (GST pull down/Cell lysate) of 0.18.

Same assay, conditions: with Flag-CDK4; HEK293 cells, co-transfected with myc-AMPKα T172D; parent: 1; read off a plot

With chain 1 S351A S377A the response (GST pull down/Cell lysate) was 0.35.

Variants of: B1
Test: co-immunoprecipitation (IP: anti-CDK4, WB: anti-GFP), band quantification
Settings: with CDK4 (in HEK293 cells, Fig. 4d), parent: 1, read off a plot

In order of rising response (IP/Cell lysate (anti-GFP)):
1. chain 1 S351A S377A  0.35
2. chain 1 S351D S377D  2

Variants of: B1
Test: co-immunoprecipitation (IP: anti-GFP, WB: anti-CDK4), band quantification
Settings: with CDK4 (in HEK293 cells, Fig. 4d), parent: 1, read off a plot

In order of falling response (IP/Cell lysate (anti-CDK4)):
1. chain 1 S351D S377D  2.1
2. chain 1 S351A S377A  0.7

Variants of: B2
Test: co-immunoprecipitation (IP: anti-GFP, WB: anti-myc), band quantification
Settings: with GFP-14-3-3β; HEK293 cells, co-transfected; parent: 1; read off a plot

In order of rising response (IP/Cell lysate):
1. chain 1 S351A S377A  0.6
2. chain 1 S377A  0.7
3. chain 1 S351A  0.85
4. chain 1 S351D  1.2
5. chain 1 S377D  1.3
6. chain 1 S351D S377D  1.9

Reference: paper PMC6399291
